# ± gives the standard deviation of the averaged measurements. Some of the results follow.
# By UniProt entry, the sequences of proteins in these tests, tags left out. Where a name states a change or a piece, a line headed by the entry shows the natural chain unless it says otherwise.
# UniProt P10619: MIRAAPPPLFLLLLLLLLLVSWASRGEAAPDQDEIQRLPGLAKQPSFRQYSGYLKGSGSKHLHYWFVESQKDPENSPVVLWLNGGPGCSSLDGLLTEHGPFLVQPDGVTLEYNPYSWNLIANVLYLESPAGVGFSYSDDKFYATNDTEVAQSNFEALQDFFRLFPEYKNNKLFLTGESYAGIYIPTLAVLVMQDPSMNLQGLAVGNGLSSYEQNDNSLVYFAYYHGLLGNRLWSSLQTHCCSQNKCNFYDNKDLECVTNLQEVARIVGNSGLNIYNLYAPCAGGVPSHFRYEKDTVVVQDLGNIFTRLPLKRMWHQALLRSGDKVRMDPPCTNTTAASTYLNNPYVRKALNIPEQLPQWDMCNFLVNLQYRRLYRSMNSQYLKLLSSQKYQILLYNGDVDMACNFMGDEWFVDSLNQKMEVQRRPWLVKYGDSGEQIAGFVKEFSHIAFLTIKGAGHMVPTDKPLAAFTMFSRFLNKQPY
# UniProt P23443: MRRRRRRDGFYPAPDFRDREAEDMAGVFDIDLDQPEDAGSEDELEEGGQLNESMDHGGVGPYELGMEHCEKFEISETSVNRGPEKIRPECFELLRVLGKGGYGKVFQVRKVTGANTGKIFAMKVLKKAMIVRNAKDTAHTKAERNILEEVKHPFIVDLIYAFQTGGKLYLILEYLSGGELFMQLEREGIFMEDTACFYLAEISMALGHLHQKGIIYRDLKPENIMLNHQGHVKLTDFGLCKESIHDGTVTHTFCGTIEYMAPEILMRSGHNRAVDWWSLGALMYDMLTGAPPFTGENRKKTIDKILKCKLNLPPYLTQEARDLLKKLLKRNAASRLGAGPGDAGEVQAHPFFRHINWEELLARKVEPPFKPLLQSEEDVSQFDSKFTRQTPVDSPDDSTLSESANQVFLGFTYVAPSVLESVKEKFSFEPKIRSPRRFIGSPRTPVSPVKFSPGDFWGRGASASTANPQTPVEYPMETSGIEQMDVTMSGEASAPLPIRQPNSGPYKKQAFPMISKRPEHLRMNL
# UniProt P07237: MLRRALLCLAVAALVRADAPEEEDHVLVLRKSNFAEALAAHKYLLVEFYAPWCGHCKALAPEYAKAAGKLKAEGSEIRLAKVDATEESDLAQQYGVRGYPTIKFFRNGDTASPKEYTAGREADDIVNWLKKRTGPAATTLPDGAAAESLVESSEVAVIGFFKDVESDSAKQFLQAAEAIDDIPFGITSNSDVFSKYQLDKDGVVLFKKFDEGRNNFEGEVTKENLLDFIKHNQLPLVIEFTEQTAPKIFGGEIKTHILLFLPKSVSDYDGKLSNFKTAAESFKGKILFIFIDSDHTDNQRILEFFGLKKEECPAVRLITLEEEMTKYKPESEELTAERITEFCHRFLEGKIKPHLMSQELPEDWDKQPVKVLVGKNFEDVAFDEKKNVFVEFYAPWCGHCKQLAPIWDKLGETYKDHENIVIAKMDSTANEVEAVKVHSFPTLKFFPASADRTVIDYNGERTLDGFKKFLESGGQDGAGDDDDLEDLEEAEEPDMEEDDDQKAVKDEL
# UniProt P23921: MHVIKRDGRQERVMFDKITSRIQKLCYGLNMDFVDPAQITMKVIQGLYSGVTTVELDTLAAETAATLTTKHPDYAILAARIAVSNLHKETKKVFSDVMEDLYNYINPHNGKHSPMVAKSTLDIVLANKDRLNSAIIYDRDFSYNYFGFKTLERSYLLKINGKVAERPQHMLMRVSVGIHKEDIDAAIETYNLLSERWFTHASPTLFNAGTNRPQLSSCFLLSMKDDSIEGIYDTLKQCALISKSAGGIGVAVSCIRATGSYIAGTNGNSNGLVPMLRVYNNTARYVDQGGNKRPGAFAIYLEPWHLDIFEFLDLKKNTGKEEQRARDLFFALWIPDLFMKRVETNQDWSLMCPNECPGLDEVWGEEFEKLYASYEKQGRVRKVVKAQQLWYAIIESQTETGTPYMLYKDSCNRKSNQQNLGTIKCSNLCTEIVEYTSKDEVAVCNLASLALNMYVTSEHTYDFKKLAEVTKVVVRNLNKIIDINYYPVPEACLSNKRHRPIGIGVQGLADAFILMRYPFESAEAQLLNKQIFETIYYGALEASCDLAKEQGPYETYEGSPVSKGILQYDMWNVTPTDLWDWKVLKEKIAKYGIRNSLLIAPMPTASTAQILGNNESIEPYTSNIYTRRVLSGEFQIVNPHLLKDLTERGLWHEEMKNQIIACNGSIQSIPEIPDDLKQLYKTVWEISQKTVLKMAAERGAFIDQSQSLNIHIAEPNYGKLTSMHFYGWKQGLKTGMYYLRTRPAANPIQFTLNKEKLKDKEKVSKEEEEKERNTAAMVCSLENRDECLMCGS
# UniProt P12004, whole entry: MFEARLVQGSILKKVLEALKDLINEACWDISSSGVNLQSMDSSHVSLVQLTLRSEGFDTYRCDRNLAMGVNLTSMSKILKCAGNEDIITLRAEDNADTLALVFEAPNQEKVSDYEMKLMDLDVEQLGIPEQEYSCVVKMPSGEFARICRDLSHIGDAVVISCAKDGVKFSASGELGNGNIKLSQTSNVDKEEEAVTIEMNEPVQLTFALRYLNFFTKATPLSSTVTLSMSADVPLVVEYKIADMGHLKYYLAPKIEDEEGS
# UniProt P08670, whole entry: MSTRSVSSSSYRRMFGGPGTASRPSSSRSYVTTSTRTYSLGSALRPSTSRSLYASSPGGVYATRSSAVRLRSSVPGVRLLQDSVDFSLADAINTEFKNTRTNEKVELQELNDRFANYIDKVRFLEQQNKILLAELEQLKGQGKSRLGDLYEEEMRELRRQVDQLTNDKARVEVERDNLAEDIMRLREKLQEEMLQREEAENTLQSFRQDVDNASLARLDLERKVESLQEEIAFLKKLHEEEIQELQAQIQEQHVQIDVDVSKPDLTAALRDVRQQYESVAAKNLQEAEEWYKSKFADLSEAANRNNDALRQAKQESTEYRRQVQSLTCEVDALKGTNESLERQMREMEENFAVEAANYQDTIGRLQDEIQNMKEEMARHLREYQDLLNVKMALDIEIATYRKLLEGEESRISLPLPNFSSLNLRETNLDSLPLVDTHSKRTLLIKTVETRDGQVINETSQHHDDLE
# UniProt P15056, whole entry: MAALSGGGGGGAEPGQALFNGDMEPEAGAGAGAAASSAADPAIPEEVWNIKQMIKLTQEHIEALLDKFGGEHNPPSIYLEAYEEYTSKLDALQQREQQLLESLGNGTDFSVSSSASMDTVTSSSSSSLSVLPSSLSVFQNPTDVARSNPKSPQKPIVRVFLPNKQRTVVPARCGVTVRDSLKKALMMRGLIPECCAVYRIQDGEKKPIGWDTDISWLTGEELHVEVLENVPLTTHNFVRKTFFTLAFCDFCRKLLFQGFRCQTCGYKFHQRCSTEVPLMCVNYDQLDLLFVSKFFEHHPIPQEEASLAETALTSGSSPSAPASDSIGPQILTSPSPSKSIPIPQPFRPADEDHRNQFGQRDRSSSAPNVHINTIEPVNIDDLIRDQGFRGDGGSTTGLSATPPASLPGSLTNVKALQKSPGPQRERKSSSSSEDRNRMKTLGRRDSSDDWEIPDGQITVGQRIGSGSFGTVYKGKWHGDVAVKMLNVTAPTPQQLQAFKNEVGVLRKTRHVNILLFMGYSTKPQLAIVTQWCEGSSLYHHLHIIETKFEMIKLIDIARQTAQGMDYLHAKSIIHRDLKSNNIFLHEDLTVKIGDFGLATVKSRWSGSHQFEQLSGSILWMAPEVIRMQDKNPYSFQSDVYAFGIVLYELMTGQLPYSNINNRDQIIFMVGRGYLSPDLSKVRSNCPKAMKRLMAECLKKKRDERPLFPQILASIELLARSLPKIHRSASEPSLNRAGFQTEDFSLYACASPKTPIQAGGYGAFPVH
# UniProt Q71UI9, whole entry, looked up: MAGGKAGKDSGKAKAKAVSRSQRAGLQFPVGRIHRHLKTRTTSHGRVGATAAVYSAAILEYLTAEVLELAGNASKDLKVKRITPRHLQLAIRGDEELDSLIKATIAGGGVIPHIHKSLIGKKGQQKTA
# UniProt P09972: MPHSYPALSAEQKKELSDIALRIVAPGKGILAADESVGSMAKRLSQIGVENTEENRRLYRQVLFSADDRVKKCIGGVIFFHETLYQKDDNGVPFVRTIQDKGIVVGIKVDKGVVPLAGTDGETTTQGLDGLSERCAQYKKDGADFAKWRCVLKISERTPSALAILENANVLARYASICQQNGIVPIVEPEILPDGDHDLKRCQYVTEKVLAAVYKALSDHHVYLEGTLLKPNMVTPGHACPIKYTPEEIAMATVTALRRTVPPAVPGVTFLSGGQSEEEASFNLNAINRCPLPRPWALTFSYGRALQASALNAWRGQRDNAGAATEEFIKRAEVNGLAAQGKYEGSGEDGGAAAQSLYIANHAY
# UniProt P21964: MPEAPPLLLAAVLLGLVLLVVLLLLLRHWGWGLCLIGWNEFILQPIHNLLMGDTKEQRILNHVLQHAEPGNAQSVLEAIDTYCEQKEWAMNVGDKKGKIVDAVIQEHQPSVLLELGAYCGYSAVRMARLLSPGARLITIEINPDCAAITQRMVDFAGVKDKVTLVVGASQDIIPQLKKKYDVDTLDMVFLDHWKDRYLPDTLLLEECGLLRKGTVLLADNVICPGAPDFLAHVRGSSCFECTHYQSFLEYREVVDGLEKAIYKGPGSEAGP
# UniProt P10747, whole entry: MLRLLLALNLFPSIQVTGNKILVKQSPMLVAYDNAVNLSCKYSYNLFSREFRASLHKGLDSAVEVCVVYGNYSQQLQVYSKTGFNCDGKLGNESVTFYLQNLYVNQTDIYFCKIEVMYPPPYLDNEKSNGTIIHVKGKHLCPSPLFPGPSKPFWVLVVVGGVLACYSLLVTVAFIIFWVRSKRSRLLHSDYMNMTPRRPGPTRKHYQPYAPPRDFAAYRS
# UniProt P20963, whole entry: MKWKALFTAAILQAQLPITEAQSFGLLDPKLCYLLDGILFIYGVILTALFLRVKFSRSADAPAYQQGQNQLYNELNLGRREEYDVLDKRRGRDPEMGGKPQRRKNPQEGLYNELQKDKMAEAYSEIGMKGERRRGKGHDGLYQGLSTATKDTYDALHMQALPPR
# UniProt P18858, whole entry: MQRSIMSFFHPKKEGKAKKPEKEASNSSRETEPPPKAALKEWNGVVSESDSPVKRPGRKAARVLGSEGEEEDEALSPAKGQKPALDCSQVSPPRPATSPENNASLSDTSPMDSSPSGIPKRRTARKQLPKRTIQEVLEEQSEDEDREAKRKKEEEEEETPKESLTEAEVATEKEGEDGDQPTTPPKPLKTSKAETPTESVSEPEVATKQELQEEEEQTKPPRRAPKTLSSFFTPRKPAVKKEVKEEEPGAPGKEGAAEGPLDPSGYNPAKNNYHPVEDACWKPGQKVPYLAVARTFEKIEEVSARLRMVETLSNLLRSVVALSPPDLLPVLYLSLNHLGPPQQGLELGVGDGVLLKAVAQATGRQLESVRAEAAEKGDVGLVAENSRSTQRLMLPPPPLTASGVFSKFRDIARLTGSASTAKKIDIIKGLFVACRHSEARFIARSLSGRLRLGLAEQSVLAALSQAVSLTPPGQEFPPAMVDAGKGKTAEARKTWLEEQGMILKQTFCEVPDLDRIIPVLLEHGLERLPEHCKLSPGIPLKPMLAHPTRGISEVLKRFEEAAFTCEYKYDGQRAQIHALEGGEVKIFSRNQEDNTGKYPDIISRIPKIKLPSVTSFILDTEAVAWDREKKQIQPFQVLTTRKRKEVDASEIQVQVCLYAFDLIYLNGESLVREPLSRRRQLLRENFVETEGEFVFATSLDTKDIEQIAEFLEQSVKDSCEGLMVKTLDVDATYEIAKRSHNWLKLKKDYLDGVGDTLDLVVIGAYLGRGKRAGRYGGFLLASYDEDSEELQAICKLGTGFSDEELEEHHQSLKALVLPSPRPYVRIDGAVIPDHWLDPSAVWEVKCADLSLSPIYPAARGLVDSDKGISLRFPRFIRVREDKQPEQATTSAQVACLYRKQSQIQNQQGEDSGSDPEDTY
# Compound: Nc1nc2c(ncn2[C@@H]2O[C@H](COP(=O)(O)OP(=O)(O)OP(=O)(O)O)[C@@H](O)[C@H]2O)c(=O)[nH]1 [guanosine triphosphate]
# Experiment: NP40-soluble protein abundance relative to vehicle (solubility fold change) (ratio); higher = more soluble protein in presence of GTP
# Outline: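 Across three independent experiments, values are fold changes against the detergent-processed vehicle for each replicate, based on vsn-normalised intensities. The samples were Jurkat crude lysate treated with eight concentrations (0.1 to 10 mM) for 10 min at room temperature and then 3 min at 37 °C. Lysate was solubilised with 0.8% NP40 and benzonase, ultracentrifuged, and the supernatant analysed by TMT-labelled LC-MS/MS.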
Target,NP40-soluble protein abundance (concentration: 0.1mM),NP40-soluble protein abundance (concentration: 0.5mM),NP40-soluble protein abundance (concentration: 1mM),NP40-soluble protein abundance (concentration: 2mM),NP40-soluble protein abundance (concentration: 4mM),NP40-soluble protein abundance (concentration: 6mM),NP40-soluble protein abundance (concentration: 8mM),NP40-soluble protein abundance (concentration: 10mM)
UniProt P10619 and related entries,0.9555 ± 0.0072,0.891 ± 0.054,0.984 ± 0.019,0.904 ± 0.0098,0.928 ± 0.031,0.908 ± 0.025,0.884 ± 0.076,0.851 ± 0.022
AKR1A1 (UniProt P14550),0.93 ± 0.035,0.912 ± 0.034,0.888 ± 0.04,0.876 ± 0.037,0.873 ± 0.047,0.849 ± 0.04,0.831 ± 0.088,0.825 ± 0.08
UniProt P23443 and related entries,0.989 ± 0.073,1.01 ± 0.05,0.898 ± 0.049,0.934 ± 0.028,0.908 ± 0.027,0.893 ± 0.035,0.89 ± 0.075,0.871 ± 0.081
HEXB (UniProt P07686),0.984 ± 0.044,0.953 ± 0.018,0.982 ± 0.026,0.936 ± 0.057,0.945 ± 0.032,0.937 ± 0.051,0.939 ± 0.036,0.908 ± 0.062
P4HB (UniProt P07237),0.855 ± 0.1,0.976 ± 0.11,0.834 ± 0.08,0.923 ± 0.18,0.89 ± 0.17,0.795 ± 0.054,0.866 ± 0.054,0.775 ± 0.071
PDIA4 (UniProt P13667),0.908 ± 0.074,0.939 ± 0.065,0.905 ± 0.069,0.876 ± 0.08,0.846 ± 0.079,0.885 ± 0.069,0.864 ± 0.073,0.867 ± 0.081
RFX1 (UniProt P22670),1 ± 0.052,1.02 ± 0.061,0.981 ± 0.13,0.99 ± 0.086,0.975 ± 0.094,0.968 ± 0.11,0.965 ± 0.057,0.978 ± 0.068
UniProt P26639,1.02 ± 0.028,1.02 ± 0.044,0.944 ± 0.016,0.953 ± 0.053,0.959 ± 0.035,0.925 ± 0.033,0.908 ± 0.012,0.885 ± 0.036
DBT (UniProt P11182),1.09 ± 0.071,1.16 ± 0.13,1.24 ± 0.14,1.39 ± 0.24,1.43 ± 0.24,1.36 ± 0.23,1.37 ± 0.31,1.35 ± 0.29
CTSD (UniProt P07339),0.929 ± 0.041,0.945 ± 0.032,0.911 ± 0.042,0.861 ± 0.022,0.863 ± 0.034,0.865 ± 0.036,0.857 ± 0.056,0.837 ± 0.047
UniProt P23921 and related entries,1.03 ± 0.063,1.04 ± 0.088,0.898 ± 0.046,0.922 ± 0.1,0.9 ± 0.06,0.902 ± 0.079,0.858 ± 0.038,0.807 ± 0.098
UniProt P13473-2,0.893 ± 0.039,0.879 ± 0.044,0.863 ± 0.028,0.872 ± 0.038,0.871 ± 0.027,0.845 ± 0.032,0.83 ± 0.041,0.905 ± 0.043
PCNA (UniProt P12004),0.949 ± 0.021,0.961 ± 0.015,0.933 ± 0.031,0.895 ± 0.044,0.868 ± 0.051,0.899 ± 0.052,0.879 ± 0.032,0.862 ± 0.049
ZKSCAN1 (UniProt P17029),0.9748 ± 0.0051,0.986 ± 0.034,0.987 ± 0.047,0.958 ± 0.024,0.963 ± 0.015,0.978 ± 0.026,1 ± 0.075,0.993 ± 0.041
VIM (UniProt P08670),0.9239 ± 0.0077,0.926 ± 0.025,1.01 ± 0.027,0.976 ± 0.028,0.959 ± 0.026,0.962 ± 0.011,0.968 ± 0.042,0.94 ± 0.047
SLC25A4 (UniProt P12235),0.893 ± 0.13,0.972 ± 0.2,0.888 ± 0.11,0.987 ± 0.14,0.978 ± 0.19,0.97 ± 0.19,0.898 ± 0.15,0.96 ± 0.12
MTHFD2 (UniProt P13995),1.01 ± 0.029,0.9845 ± 0.0074,0.976 ± 0.052,0.934 ± 0.05,0.95 ± 0.075,0.928 ± 0.055,0.956 ± 0.058,0.923 ± 0.058
UniProt P07954-2,0.94 ± 0.039,0.956 ± 0.039,0.916 ± 0.038,0.903 ± 0.034,0.873 ± 0.018,0.909 ± 0.028,0.89 ± 0.04,0.888 ± 0.047
CCNA2 (UniProt P20248),0.924 ± 0.078,0.935 ± 0.12,0.987 ± 0.11,0.959 ± 0.15,0.97 ± 0.13,0.987 ± 0.15,0.998 ± 0.11,1.01 ± 0.14
UniProt P17252,1.002 ± 0.004,1.01 ± 0.023,0.961 ± 0.033,0.926 ± 0.043,0.921 ± 0.05,0.932 ± 0.047,0.913 ± 0.025,0.885 ± 0.063
UniProt P15056 and related entries,1.03 ± 0.048,1.04 ± 0.041,1.05 ± 0.04,0.995 ± 0.065,1 ± 0.077,1.01 ± 0.016,1.05 ± 0.084,1.07 ± 0.049
P0C0S5 and related entries (UniProt Q71UI9+P0C0S5),0.898 ± 0.042,0.919 ± 0.033,1.11 ± 0.065,1.11 ± 0.06,1.12 ± 0.06,1.25 ± 0.094,1.25 ± 0.079,1.57 ± 0.18
ADH5 (UniProt P11766),0.976 ± 0.048,0.97 ± 0.041,0.899 ± 0.029,0.8934 ± 0.0078,0.883 ± 0.019,0.8828 ± 0.0086,0.858 ± 0.051,0.838 ± 0.053
HSPD1 (UniProt P10809),0.944 ± 0.044,0.952 ± 0.047,0.971 ± 0.047,0.914 ± 0.073,0.908 ± 0.064,0.923 ± 0.062,0.93 ± 0.03,0.925 ± 0.055
ALDOC (UniProt P09972),0.946 ± 0.082,0.954 ± 0.073,0.973 ± 0.079,0.954 ± 0.07,0.962 ± 0.061,0.936 ± 0.062,0.949 ± 0.06,0.954 ± 0.067
UniProt P21964 and related entries,1 ± 0.051,0.978 ± 0.06,0.951 ± 0.066,0.933 ± 0.071,0.948 ± 0.072,0.895 ± 0.082,0.911 ± 0.13,0.865 ± 0.092
UniProt P12429 and related entries,0.981 ± 0.1,0.961 ± 0.066,0.968 ± 0.027,0.875 ± 0.025,0.921 ± 0.051,0.859 ± 0.03,0.891 ± 0.045,0.87 ± 0.055
UniProt P10747 and related entries,1 ± 0.1,0.959 ± 0.086,1.06 ± 0.13,1.02 ± 0.12,0.98 ± 0.15,1.01 ± 0.11,0.984 ± 0.14,0.986 ± 0.086
UniProt P20963 and related entries,0.993 ± 0.13,0.946 ± 0.095,1.12 ± 0.21,1.1 ± 0.2,1.08 ± 0.067,1.07 ± 0.093,1.11 ± 0.24,1.21 ± 0.26
LIG1 (UniProt P18858),0.993 ± 0.032,0.993 ± 0.031,0.962 ± 0.044,0.925 ± 0.029,0.921 ± 0.043,0.916 ± 0.045,0.941 ± 0.052,0.89 ± 0.041

# Quoted at random: two records from the list
Target,NP40-soluble protein abundance (concentration: 0.1mM),NP40-soluble protein abundance (concentration: 0.5mM),NP40-soluble protein abundance (concentration: 1mM),NP40-soluble protein abundance (concentration: 2mM),NP40-soluble protein abundance (concentration: 4mM),NP40-soluble protein abundance (concentration: 6mM),NP40-soluble protein abundance (concentration: 8mM),NP40-soluble protein abundance (concentration: 10mM)
ALDOC (UniProt P09972),0.946 ± 0.082,0.954 ± 0.073,0.973 ± 0.079,0.954 ± 0.07,0.962 ± 0.061,0.936 ± 0.062,0.949 ± 0.06,0.954 ± 0.067
VIM (UniProt P08670),0.9239 ± 0.0077,0.926 ± 0.025,1.01 ± 0.027,0.976 ± 0.028,0.959 ± 0.026,0.962 ± 0.011,0.968 ± 0.042,0.94 ± 0.047
